A short description of the assay: qHTS Assay to Find Inhibitors of Chronic Active B-Cell Receptor Signaling. The settings on record: ABC-DLBCL IkBa-CBG/CBR reporter, luminescence ratio (green luciferase fused to IkBa over red control in TMD8 lymphoma cells), 4 h. Put shortly: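 TMD8 ABC-DLBCL cells carrying doxycycline-inducible green luciferase fused to IkappaBalpha plus unfused red luciferase were exposed to compounds (up to 46 uM) for 4 hrs at 37C. Activity came from the overlap-corrected green/red luminescence ratio.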
(qHTS replaces the single test concentration by a dilution series.)

[1] abbreviates: measured here: IkBa-CBG green luminescence.
[2] abbreviates: measured here: CBR red luminescence, cell number.

The structures appear in SMILES notation. The list shows a part of the results. Shown are side measurements of this screen, not its main read-out; they come without a call. The list favours compounds with an active or inconclusive main result. Words in brackets tell the shape of the fitted curve; partial curves, single points and poor fits give uncertain potencies.

Consider 40 compounds from PubChem BioAssay AID493014 (National Center for Advancing Translational Sciences (NCATS), 2011).

Usually AC50 stands for the concentration giving half of the maximal activity seen.

`Cc1ccc(NC(=S)NNC(=S)Nc2ccc(C)cc2C)cc1`: the AC50 under setting [1] was 12.6 µM [falling, partial curve].
With `CCC(CC)NC(=O)CO/N=C/c1ccccc1OC(F)F`, the AC50 under setting [2] is 1.3 µM [rising, full curve, poor fit].
Regarding `CC(C)NC(=O)c1cc(C(=O)c2cc(Cl)ccc2O)coc1=N`, under setting [2], the AC50 is 12.6 µM [falling, single point].
The same measure, in the same setting: the result for `COc1ccc(NC(=O)CC2C(=O)N(CCc3ccccc3)C(=S)N2Cc2cccnc2)cc1` (stereo not drawn) reads 12.6 µM [falling, single point]; that for `CC(C)(C)c1ccc(CN2C(=O)c3ccccc3S2(=O)=O)cc1`, 6.31 µM [rising, full curve, poor fit].
For `O=C(CC1C(=O)NCCN1C(=O)Nc1ccccc1)Nc1cc(Cl)ccc1Cl` (stereo not drawn), the AC50 under setting [2] was 20 µM [rising, partial curve, poor fit].
Same read-out and setting: the same measure for `COc1ccc(NS(=O)(=O)c2cccc(Cl)c2)cc1S(=O)(=O)N1CCCCC1`: 1.46 µM [falling, full curve]; for `CC(=O)Oc1ccc(/C=C/c2nc3ccccc3c(=O)o2)cc1`: 2.51 µM [falling, partial curve].
Regarding `CCOC(=O)c1[nH]c(C)c(C(=O)Nc2cc(Cl)ccc2C)c1C`, the AC50 runs as follows: under setting [2], 11.6 µM [rising, partial curve]; under setting [1], 16.4 µM [falling, partial curve].
For `N#Cc1cc(N2CCOCC2)nc2ccccc12`, the AC50 under setting [2] is 7.94 µM [rising, partial curve, poor fit].
`Cc1c(C(=O)N/N=C/c2ccccn2)nnn1-c1nonc1N`: the AC50 under setting [2] was 0.447 µM [falling, full curve, poor fit].
Take `O=C(Cn1ncc(Cl)c(Cl)c1=O)NC(=O)NC1CCCCC1`: the concentration at half-maximal activity (AC50) under setting [2] is 3.66 µM [falling, full curve] and the half-maximal activity concentration (AC50) under setting [1] was 7.31 µM [rising, partial curve, poor fit].
Take `CC(/C=N/n1c(-c2ccc(Cl)cc2)n[nH]c1=S)=C\c1ccco1`: the AC50 under setting [2] was 20.6 µM [rising, partial curve].
As to `O=C(Nc1cccc2cccnc12)c1ccc(Cl)cc1Cl`, under setting [2], the AC50 was 10 µM [rising, partial curve].
In the case of `Cc1cccc(CN2CCN(Cc3cnn(-c4ccccc4F)c3)CC2CCO)n1` (stereo not drawn), the AC50 under setting [2] is 0.794 µM [rising, full curve, poor fit].
On the same count and under the same terms, the result for `CCN1C(=NCCCCO)N[C@@H](c2cccc(F)c2)C(C(=O)OC)=C1C` reads 0.794 µM [falling, full curve, poor fit]; that for `O=C(Nc1ccc2c(c1)OCCO2)c1cncc(Br)c1`, 35.5 µM [falling, single point]; that for `CC(=O)c1ccc(C(=O)N2CCCC(Nc3ccccc3)C2)s1` (stereo not drawn), 10 µM [rising, partial curve, poor fit].
Same read-out and setting: the result for `COc1ccc([N+](=O)[O-])cc1NC(=O)Nc1ccc(OC)c(OC)c1` reads 35.5 µM [falling, single point]; that for `COc1cccc(/C(O)=C/c2nc3ccc(C(=O)NCCc4cccc(C)c4)cc3[nH]c2=O)c1`, 20.6 µM [falling, single point]; that for `CCOc1ccccc1NC(=O)C(=O)NCC1CCCN1CC` (stereo not drawn), 3.55 µM [falling, partial curve, poor fit].
As to `C(=N\N1CCN(c2ccccn2)CC1)/c1cccc2ccccc12`, under setting [2], the AC50 was 8.91 µM [falling, partial curve, poor fit].
On to `COC(=O)C1=C(C)OC(N)=C(C#N)C1c1cc(C)sc1C` (stereo not drawn), for which the AC50 under setting [2] is 7.31 µM [falling, partial curve, poor fit].
Consider `C[C@H](CO)N1C[C@H](C)[C@@H](CN(C)C(=O)Nc2ccc3c(c2)OCO3)Oc2c(NC(=O)C3CC3)cccc2C1=O`, for which, under setting [2], the AC50 was 13 µM [rising, partial curve, poor fit].
Still for that read-out and setting: the result for `Cc1cccc(CSc2nc3ccccc3c(=O)n2C)c1` reads 3.66 µM [rising, partial curve, poor fit].
Consider `CCn1ncc(Cl)c1C(=O)NC(=S)Nc1ccccc1Br`, for which the AC50 under setting [2] is 14.1 µM [falling, single point] and the AC50 under setting [1] is 28.2 µM [falling, single point].
With `Cc1ccc(-c2n[nH]c(=S)n2/N=C/c2c(C)[nH]n(-c3ccccc3)c2=O)cc1`, the AC50 under setting [2] is 35.5 µM [falling, single point].
In the case of `Cc1nc(SCC(=O)N2CCNC2=O)c2ccccc2n1`, the AC50 under setting [2] was 25.9 µM [falling, single point].
Consider `O=[N+]([O-])c1ccccc1NCc1ccccc1Cl`, for which the AC50 under setting [1] is 10 µM [falling, partial curve, poor fit].
Consider `N#Cc1c(N2C(=O)C3C4C=CC(C4)C3C2=O)sc2c1CCC2` (stereo not drawn), for which the AC50 under setting [2] was 6.51 µM [rising, single point].
For `Cc1cccn2c(=O)c3cc(C#N)c(=NC(=O)c4cccs4)n(CCCOC(C)C)c3nc12`, the AC50 under setting [2] is 15.8 µM [falling, partial curve, poor fit].
Turning to `O=C(O)c1ccc(Oc2ccccc2)o1`, the AC50 under setting [2] was 8.91 µM [rising, partial curve, poor fit].
Still for that read-out and setting: the same measure for `O=C(COc1ccccc1)N1CCN(S(=O)(=O)c2cccs2)CC1`: 32.6 µM [falling, single point]; for `COc1ccc(NC(=O)c2cccc(-c3ccc(O)cc3)c2)cn1`: 7.08 µM [falling, full curve].
Same read-out and setting: the result for `COc1ccc2nc(SCC(=O)N(C)C3CCCCC3)[nH]c2c1` reads 20.6 µM [falling, partial curve]; that for `CN(C(=O)C1CCOC1)c1nnc(-c2ccccn2)s1` (stereo not drawn), 29.1 µM [rising, single point]; that for `CC(C)Cn1cc(C(=O)N2CCN(c3ccccn3)CC2)c2c3ccccc3n(C)c2c1=O`, 11.2 µM [falling, partial curve, poor fit].
As for `Cc1ccc(Nc2nc(-c3ccc(O)c(O)c3)cs2)nc1`, the AC50 under setting [2] was 3.16 µM [falling, partial curve, poor fit].
On the same count and under the same terms, the result for `Cc1ccc(NC(=O)c2ccccc2NS(=O)(=O)c2ccc(F)cc2)cc1S(=O)(=O)N1CCCCC1` reads 10.3 µM [falling, partial curve, poor fit]; that for `O=c1[nH]c(/C=C/c2cccnc2)c([N+](=O)[O-])c(=O)[nH]1`, 22.4 µM [falling, partial curve, poor fit].
